The other results are listed elsewhere or left out. These are raw signals, not scaled to a control.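 Primary screen: polymyxin B was added at a level permeabilizing Salmonella outer membranes while sparing inner membranes. DMSO wells, both with and without polymyxin B, established maximum growth. Plate-to-plate variation meant each plate was ranked on its own, and the lowest-OD600 compounds were selected as hits.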
Tested on: Salmonella enterica serovar Typhimurium SL1344
Assay: bacterial growth OD600 after 18 h with compound and polymyxin B; higher = more bacterial growth (less inhibition)
Settings: 50 µM, Mueller-Hinton broth

Row | Compound | bacterial growth OD600 (polymyxin B 1 µg/mL) | bacterial growth OD600 (polymyxin B 0.75 µg/mL)
1 | O=C(NCCCn1cccn1)c1ccc2nc(C3CCCCC3)oc2c1 | 0.953 | 
2 | Cc1ccccc1-c1noc(-c2ccc(N(C)C(C)c3ccon3)nc2)n1 (configuration not stated) |  | 0.429
3 | COc1ccc(C(=O)NC2CC2)c(OC2CCN(C(C)CCn3cccn3)CC2)c1 (configuration not stated) |  | 0.793
4 | Cc1ccccc1CCC1CCCN(C(=O)c2cscn2)C1 (configuration not stated) |  | 0.009
5 | Cc1occc1C(=O)NCc1nc(-c2ccc(NC(=O)Cc3ccccc3)cc2)oc1C |  | 0.85
6 | COc1ccc(N2C(=O)CN(C(=O)COc3ccccc3OC)CC23CCCC3)cc1 |  | 0.786
7 | COCc1ccc(C(=O)N2CCC(n3nccc3NC(=O)c3cccc(F)c3)CC2)o1 | 0.994 | 
8 | Cc1cccc(C)c1Oc1ncccc1CNC(=O)CCc1c(C)noc1C | 1.32 | 
9 | CN1CCN([C@@H]2CCN(Cc3ccc(-c4cccc(Cl)c4)o3)C[C@H]2O)CC1 | 0.86 | 
10 | CCOC(=O)N1CCN(Cc2ccc3c(c2)CN(C(=O)[C@@H]2C[C@H]2c2ccccc2)CCO3)CC1 |  | 0.82
11 | CCN1CCN(Cc2nc(-c3ccc(Cl)cc3)oc2C)[C@@H](C)C1=O | 0.249 | 
12 | COc1ccc(-c2cnnc(N3CCC(N(C)C)C3)n2)cc1F (configuration not stated) |  | 0.88
13 | CCOC(=O)N1CCN(c2nncc(-c3ccc4ccccc4c3)n2)CC1 |  | 0.006
14 | COc1ccc(OCc2cc(C(=O)N(C)Cc3cc(C)no3)no2)c(Cl)c1 | 1.07 | 
15 | Cc1nnc(CN(C)C(=O)CC(c2ccccc2)c2ccc(Cl)cc2)o1 (configuration not stated) | 0.911 | 
16 | Cc1c[nH]c(CNC(=O)C2CCCN(c3nc(-c4ccccc4)nc4c3CCC4)C2)n1 (configuration not stated) | 0.004 | 

In the list so far, these contain fluorine.
Row | Compound | bacterial growth OD600 (polymyxin B 1 µg/mL) | bacterial growth OD600 (polymyxin B 0.75 µg/mL)
7 | COCc1ccc(C(=O)N2CCC(n3nccc3NC(=O)c3cccc(F)c3)CC2)o1 | 0.994 | 
12 | COc1ccc(-c2cnnc(N3CCC(N(C)C)C3)n2)cc1F (configuration not stated) |  | 0.88

(listing goes on)

Row | Compound | bacterial growth OD600 (polymyxin B 1 µg/mL) | bacterial growth OD600 (polymyxin B 0.75 µg/mL)
17 | O=C(NCc1cccc(F)c1)c1ccc(OC2CCN(C(=O)C3CC3)CC2)cc1 | 1.17 | 
18 | COCc1ccc(C(=O)Nc2ccc(-c3nc(CNC(=O)c4csc(SC)n4)c(C)o3)cc2)o1 |  | 0.872
19 | Cc1nonc1CC(=O)N1CCCC(CNC(=O)C2(c3ccc(Cl)cc3)CC2)C1 (configuration not stated) |  | 0.724
20 | COc1ccc(CCc2nnc(CCC(=O)NC3CCCCCCC3)o2)cc1 | 0.948 | 
21 | CCOC(=O)C1(CCCc2ccccc2)CCN(Cc2ccc(CO)o2)CC1 | 0.786 | 
22 | CC(C)CN1CCC(CN(C)C(=O)c2cc(COc3c(F)cccc3F)on2)CC1 |  | 0.924
23 | CCn1cc(C(=O)N2CCc3[nH]nc(-c4ccc5c(c4)OCO5)c3C2)cn1 |  | 0.736
24 | COc1cccc(CC2(CO)CCN(CC3=CC[C@H]4C[C@@H]3C4(C)C)CC2)c1 |  | 0.753
25 | CC(=O)NCCC1CCN(c2nc3nonc3nc2N(C)Cc2ccccc2)CC1 | 0.926 | 
26 | CC(c1ccccc1)c1cc(C(=O)NCCc2cccs2)on1 (configuration not stated) |  | 0.622
27 | CCS(=O)(=O)c1ncc(CN2CCC(OC)CC2)n1CCCc1ccccc1 | 0.543 | 
28 | COCCN1C(=O)CC(CC(=O)N2CCCC(C(=O)c3nccn3C)C2)(c2ccccc2F)C1=O (configuration not stated) |  | 0.916
29 | COc1ccccc1CC(=O)N1CCC(C(Cc2ccccc2)N(C)C(=O)Cn2cccn2)CC1 (configuration not stated) |  | 0.991
30 | CC(C)CCC(=O)NCC1Cc2cccc(-c3cncnc3)c2O1 (configuration not stated) |  | 0.897
31 | Cc1oc(-c2ccc(NC(=O)Cc3ccccc3)cc2)nc1CNC(=O)c1ccc2c(c1)OCO2 |  | 0.879
32 | CC(=O)N1CCC(NC2CC(C)(C)Cc3c2cnn3-c2ccc(F)cc2)CC1 (configuration not stated) | 0.927 | 
